Results: EP4538294A1
These are yes or no findings as the source states them, for the method shown. Some results given as binding are weak or reduced against the parent protein; the word gives no strength.

Amino acid sequences for entries named in this document (tags omitted). A change or cut given only in a name is not applied to a line headed by its entry. Residues count along the entry.
UniProt Q02223: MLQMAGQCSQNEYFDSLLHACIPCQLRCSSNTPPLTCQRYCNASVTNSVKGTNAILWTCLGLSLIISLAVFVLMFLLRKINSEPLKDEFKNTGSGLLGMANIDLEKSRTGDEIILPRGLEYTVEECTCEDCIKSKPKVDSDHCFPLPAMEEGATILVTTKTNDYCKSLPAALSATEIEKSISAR
human BCMA-his protein: residues 1-54 of Q02223
UniProt Q9NZD1: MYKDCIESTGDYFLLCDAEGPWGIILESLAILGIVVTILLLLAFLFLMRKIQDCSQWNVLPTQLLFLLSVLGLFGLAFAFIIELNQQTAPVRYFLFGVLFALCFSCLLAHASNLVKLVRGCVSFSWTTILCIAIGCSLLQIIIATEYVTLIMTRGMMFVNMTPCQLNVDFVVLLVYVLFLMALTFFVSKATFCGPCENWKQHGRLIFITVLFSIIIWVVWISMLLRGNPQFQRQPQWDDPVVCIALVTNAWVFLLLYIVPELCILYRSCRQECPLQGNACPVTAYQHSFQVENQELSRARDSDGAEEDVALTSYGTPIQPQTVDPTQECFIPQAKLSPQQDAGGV
UniProt P07766, residues 23-126: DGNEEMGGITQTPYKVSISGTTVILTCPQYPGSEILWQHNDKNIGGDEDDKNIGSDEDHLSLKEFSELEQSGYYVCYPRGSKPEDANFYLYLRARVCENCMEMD
UniProt P04234: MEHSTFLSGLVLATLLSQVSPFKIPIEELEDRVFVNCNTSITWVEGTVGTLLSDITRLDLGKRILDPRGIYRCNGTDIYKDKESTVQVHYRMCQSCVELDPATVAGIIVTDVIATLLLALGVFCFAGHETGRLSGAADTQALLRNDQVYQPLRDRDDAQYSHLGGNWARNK

Assays:
[1] = molecular target: human BCMA on Flp-inCHO-human BCMA cells (human) (UniProt Q02223); assay: FACS
[2] = molecular target: human GPRC5D on CHOK1-human GPRC5D cells (human) (UniProt Q9NZD1); assay: FACS
[3] = molecular target: human GPRC5D on CHOK1-human GPRC5D cells (human) (UniProt Q9NZD1); assay: cell-based ELISA
[4] = molecular target: human BCMA-his protein (human) (UniProt Q02223); assay: ELISA, coated protein
[5] = molecular target: human CD3e-his protein (human) (UniProt P07766); assay: ELISA, coated protein
[6] = molecular target: human CD3e/d-his protein (human) (UniProt P07766+P04234); assay: ELISA, coated protein
[7] = molecular target: human CD3 on Jurkat cells and on activated human PBMC (human) (UniProt P07766+P04234); assay: FACS, Jurkat cells and activated human PBMC

Row | binding [1] | binding [2] | binding [3] | binding [4] | binding [5] | binding [6] | binding [7] | Binder
1 | binds | binds | binds | binds | binds | binds | – | Tri-65 (trispecific antibody, V domains shown) VHH: EVQLVESGGGLVQPGGSLRLSCAASESISSIHIMAWYRQAPGKQRELVAGIRNDGSTVYVDSVKGRFTISRDNAKNSLYLQMNSLRAEDTAVYYCNADQGFGSYSEWERRSRWGQGTTVTVSS VH 1: EVQLVQSGAEVKKPGASVKVSCKTSGYIFTNFGITWVRQAPGQRLEWMGENYPRRINTYYNEKFKGRVTITADKSASTAYMELSSLRSEDTAVYYCSRKDIFGLSYALDYWGQGTTVTVSS VL 1: DIQMTQSPSSLSASVGDRVTITCKASQNVGTNVAWYQHKPGKSPKALIYSASYQYSGVPSRFSGSGSGTDFTLTISSLQPEDVATYICQQYKNYPYTFGGGTKVEIK VH 2: EVQLVESGGGVVQPGRSLRLSCAASGFTFTDYYMSWVRQAPGKGLEWVAMSRNKAKGHTIEYSSSVKGRFTISRDNSKNTLYLQMNSLRAEDTAVYYCARDTYESYDGYFDVWGQGTTVTVSS VL 2: DIVMTQSPDSLAVSLGERATINCKSSQSLFNSRSRKNYLAWYQQKPGQTPKLLIYWASIRESGVPDRFSGSGSGTDFTLTISSLQAEDVAVYYCKQSYYLYTFGQGTKLEIK
2 | – | – | – | – | – | – | binds | Tri-55 (trispecific antibody, V domains shown) VHH: EVQLVESGGGLVQPGGSLRLSCAASESISSIHIMAWYRQAPGKQRELVAGIRNDGSTVYVDSVKGRFTISRDNAKNSLYLQMNSLRAEDTAVYYCNADQGFGSYSEWERRSRWGQGTTVTVSS VH 1: EVQLVQSGAEVKKPGSSVKVSCKASGYTFTSYGISWVRQAPGQGLEWMGEIYPRSGNTYYNEKFKGRVTLTADKSTSTAYMELSSLRSEDTAVYYCARGRAYGRNYPMDYWGQGTTVTVSS VL 1: EIVLTQSPATLSLSPGERATLSCRASQSIGTSIHWYQQKPGQSPRLLIKYASESISGIPARFSGSGSGTDFTLTISSLEPEDFAVYYCQQSNSWPYTFGGGTKVEIK VH 2: EVQLVESGGGVVQPGRSLRLSCAASGFTFTDYYMSWVRQAPGKGLEWVAMSRNKAKGHTIEYSSSVKGRFTISRDNSKNTLYLQMNSLRAEDTAVYYCARDTYESYDGYFDVWGQGTTVTVSS VL 2: DIVMTQSPDSLAVSLGERATINCKSSQSLFNSRSRKNYLAWYQQKPGQTPKLLIYWASIRESGVPDRFSGSGSGTDFTLTISSLQAEDVAVYYCKQSYYLYTFGQGTKLEIK
3 | – | – | – | – | – | – | binds | Tri-49 (trispecific antibody, V domains shown) VHH: EVQLVESGGGLVQPGGSLRLSCAASESISSIHIMAWYRQAPGKQRELVAGIRNDGSTVYVDSVKGRFTISRDNAKNSLYLQMNSLRAEDTAVYYCNADQGFGSYSEWERRSRWGQGTTVTVSS VH 1: EVQLVQSGAEVKKPGSSVKVSCKASGYTFTSYGISWVRQAPGQGLEWMGEIYPRSGNTYYNEKFKGRVTLTADKSTSTAYMELSSLRSEDTAVYYCARGRAYGRNYPMDYWGQGTTVTVSS VL 1: EIVLTQSPATLSLSPGERATLSCRASQSIGTSIHWYQQKPGQSPRLLIKYASESISGIPARFSGSGSGTDFTLTISSLEPEDFAVYYCQQSNSWPYTFGGGTKVEIK VH 2: EVQLVESGGGVVQPGRSLRLSCAASGFTFTDYYMSWVRQAPGKGLEWVAMSRNKAKGHTIEYSSSVKGRFTISRDNSKNTLYLQMNSLRAEDTAVYYCARDTYESYDGYFDVWGQGTTVTVSS VL 2: DIVMTQSPDSLAVSLGERATINCKSSQSLFNSRSRKNYLAWYQQKPGQTPKLLIYWASIRESGVPDRFSGSGSGTDFTLTISSLQAEDVAVYYCKQSYYLYTFGQGTKLEIK
4 | – | – | – | – | – | – | binds | Tri-59 (trispecific antibody, V domains shown) VHH: EVQLVESGGGLVQPGGSLRLSCAASESISSIHIMAWYRQAPGKQRELVAGIRNDGSTVYVDSVKGRFTISRDNAKNSLYLQMNSLRAEDTAVYYCNADQGFGSYSEWERRSRWGQGTTVTVSS VH 1: EVQLVQSGAEVKKPGSSVKVSCKASGYTFTSYGISWVRQAPGQGLEWMGEIYPRSGNTYYNEKFKGRVTLTADKSTSTAYMELSSLRSEDTAVYYCARGRAYGRNYPMDYWGQGTTVTVSS VL 1: EIVLTQSPATLSLSPGERATLSCRASQSIGTSIHWYQQKPGQSPRLLIKYASESISGIPARFSGSGSGTDFTLTISSLEPEDFAVYYCQQSNSWPYTFGGGTKVEIK VH 2: EVQLVESGGGVVQPGRSLRLSCAASGFTFTDYYMSWVRQAPGKGLEWVAMSRNKAKGHTIEYSSSVKGRFTISRDNSKNTLYLQMNSLRAEDTAVYYCARDTYESYDGYFDVWGQGTTVTVSS VL 2: DIVMTQSPDSLAVSLGERATINCKSSQSLFNSRSRKNYLAWYQQKPGQTPKLLIYWASIRESGVPDRFSGSGSGTDFTLTISSLQAEDVAVYYCKQSYYLYTFGQGTKLEIK
5 | binds | binds | binds | binds | binds | binds | – | Tri-66 (trispecific antibody, V domains shown) VHH: EVQLVESGGGLVQPGGSLRLSCAASESISSIHIMAWYRQAPGKQRELVAGIRNDGSTVYVDSVKGRFTISRDNAKNSLYLQMNSLRAEDTAVYYCNADQGFGSYSEWERRSRWGQGTTVTVSS VH 1: EVQLVQSGAEVKKPGASVKVSCKTSGYIFTNFGITWVRQAPGQRLEWMGENYPRRINTYYNEKFKGRVTITADKSASTAYMELSSLRSEDTAVYYCSRKDIFGLSYALDYWGQGTTVTVSS VL 1: DIQMTQSPSSLSASVGDRVTITCKASQNVGTNVAWYQHKPGKSPKALIYSASYQYSGVPSRFSGSGSGTDFTLTISSLQPEDVATYICQQYKNYPYTFGGGTKVEIK VH 2: EVQLVESGGGVVQPGRSLRLSCAASGFTFTDYYMSWVRQAPGKGLEWVAMSRNKAKGHTIEYSSSVKGRFTISRDNSKNTLYLQMNSLRAEDTAVYYCARDTYESYDGYFDVWGQGTTVTVSS VL 2: DIVMTQSPDSLAVSLGERATINCKSSQSLFNSRSRKNYLAWYQQKPGQTPKLLIYWASIRESGVPDRFSGSGSGTDFTLTISSLQAEDVAVYYCKQSYYLYTFGQGTKLEIK
